From PubChem BioAssay AID493014 (National Center for Advancing Translational Sciences (NCATS), 2011) come the findings set out here.

The other results are listed elsewhere or left out. The main result of the screen is listed elsewhere. These columns were measured beside it and carry no call. Most of these compounds were active or inconclusive in the main read-out, so they are no random draw. Potencies come from curve fits of mixed quality, noted in brackets.

A short description of the assay: qHTS Assay to Find Inhibitors of Chronic Active B-Cell Receptor Signaling. As to conditions: ABC-DLBCL IkBa-CBG/CBR reporter, luminescence ratio (green luciferase fused to IkBa over red control in TMD8 lymphoma cells), 4 h. In outline: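 Cell line TMD8 (human ABC DLBCL), stably expressing tet-inducible CBG68-IkBa fusion and CBR; IMDM/0.5% FBS; cpd up to 46 uM; dox induction, 4 h, 37C/5% CO2; dual luminescence; green/red ratio; MG132 control.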

[1] abbreviates: measured here: CBR red luminescence, cell number.
Setting [2] is: measured here: IkBa-CBG green luminescence.

In the case of `C[C@H]1CCCC(=O)CCC/C=C/c2cc(O)cc(O)c2C(=O)O1`, the AC50 under setting [1] was 5.8 µM [falling, full curve]. On to `C/C(=N\NC(=O)c1cc(-c2ccc(C)s2)[nH]n1)c1ccncc1`, for which, under setting [1], the AC50 was 10 µM [falling, partial curve, poor fit].

In the case of `CC(C)COC(=O)c1ccccc1C(=O)OCC(C)C`, the AC50 under setting [1] is 0.398 µM [falling, partial curve, poor fit]. In the case of `CN1CCN(CC(=O)Nc2ccc([N+](=O)[O-])cc2C(=O)c2ccccc2)CC1`, under setting [1], the AC50 is 0.708 µM [rising, full curve, poor fit]. On the same count and under the same terms, the figure for `Cc1cc(O)c2c(c1)OC(C)(C)C1=C2CC(C)CC1` (configuration not stated) is 35.5 µM [rising, single point]; for `NC(=O)c1ccc(C(=O)Nc2ccc([As](=O)(O)O)cc2)cc1` it is 15.8 µM [falling, partial curve, poor fit]. For the molecule `COC(=O)C1C(O)C(C)C(O)C(C)/C=C\C=C(/C)C(=O)Nc2c(C)c(OC(C)=O)c3c(c2O)C(=O)C(C)=C2OCOC(=C23)/C(C)=C/C(C)(O)C(O)C(C)C1O` (configuration not stated), the AC50 under setting [1] is 0.708 µM [falling, full curve, poor fit]. `Cc1ccccc1OCC(=O)N/N=C/c1cccc2cccnc12`: under setting [1], the concentration at half-maximal activity (AC50) was 12.6 µM [falling, partial curve].

Take `CCOC(=O)c1cccc(NC(=O)COc2nsnc2N2CCOCC2)c1`: under setting [1], the AC50 was 25.1 µM [falling, single point]. Turning to `c1cc2c(cc1[C@H]1OC[C@H]3[C@@H]1CO[C@@H]3c1ccc3c(c1)OCO3)OCO2`, the AC50 under setting [1] was 15.8 µM [rising, single point]. Consider `CCOC(=O)Cn1c(=O)oc2cc(S(=O)(=O)Nc3cccc(C)c3)ccc21`, for which the AC50 under setting [1] is 0.00461 µM [rising, full curve, poor fit]. As to `O=C1NC(=O)C(=Cc2cc(Cl)ccc2OCc2ccc(C(=O)O)cc2)C(=O)N1`, the AC50 runs as follows: under setting [1], 12.6 µM [falling, partial curve]; under setting [2], 35.5 µM [falling, single point]. For the molecule `Cc1cccc(OCCCn2c(=O)oc3ccccc32)c1`, under setting [1], the AC50 is 2.82 µM [rising, full curve, poor fit]. As for `CCOC(=O)C(O)(c1ccc(NC(=S)NC(=O)c2ccc(Cl)cc2Cl)cc1)C(F)(F)F` (configuration not stated), the AC50 under setting [1] was 18.4 µM [falling, partial curve] and the AC50 under setting [2] is 29.1 µM [rising, single point]. With `CNCCc1c[nH]c2ccccc12`, the AC50 under setting [1] is 35.5 µM [falling, single point]. For the molecule `O=C(NCCc1ccccc1)c1cnc2ccccc2n1`, under setting [1], the AC50 was 10 µM [falling, partial curve]. On to `O=c1[nH]c(CN2CCNCC2)nc2ccccc12`, for which the AC50 under setting [1] is 0.731 µM [falling, full curve, poor fit]. On to `CC(C)n1c(O)c(C2c3cc(Cl)ccc3Oc3[nH]c(=O)n(C(C)C)c(=O)c32)c(=O)[nH]c1=O` (configuration not stated), for which, under setting [1], the AC50 is 20 µM [falling, single point]. As for `CN(C)C(=O)Oc1ccc2c(c1)O/C(=C\c1cccc([N+](=O)[O-])c1)C2=O`, the AC50 under setting [1] is 12.6 µM [rising, single point].

Regarding `COC(=O)C1=C(c2cccc(OCc3ccccc3)c2)C[C@@H]2CC[C@H]1N2C(=O)NCCCc1ccccc1`, the AC50 under setting [1] is 16.4 µM [falling, single point].

As for `COCCCn1c(N)c(C(=O)Nc2ccccc2)c2nc3ccccc3nc21`, under setting [1], the AC50 is 10 µM [falling, partial curve, poor fit]. `CC(=O)Nc1ccc(C(c2c(O)c3ccccc3oc2=O)c2c(C)n(C)n(-c3ccccc3)c2=O)cc1` (configuration not stated): the AC50 under setting [1] is 4.47 µM [falling, partial curve, poor fit].

In the case of `CCOc1cc2c(cc1OCC)-n1cccc1C(c1cc(C)c(OC)cc1C)NC2` (configuration not stated), under setting [1], the AC50 is 11.2 µM [falling, single point]. In the case of `COC(=O)C1=Nc2ccccc2/C1=C\c1c(O)n(-c2ccc(OC)cc2)c(=O)[nH]c1=O`, the AC50 under setting [1] was 7.94 µM [falling, partial curve, poor fit]. As to `Cc1cccnc1NC1=NCC(C)S1` (configuration not stated), the concentration at half-maximal activity (AC50) under setting [1] is 16.4 µM [rising, single point]. In the case of `Cn1c(=O)oc2cc(S(=O)(=O)N3CCC(C(=O)Nc4ccc(OC(F)(F)F)cc4)CC3)ccc21`, the AC50 under setting [1] is 0.00461 µM [rising, full curve, poor fit]. Turning to `Oc1ccc(Nc2nc(-c3ccccc3)nc3ccccc23)cc1`, the AC50 under setting [1] was 8.91 µM [falling, partial curve, poor fit]. Turning to `COC(=O)C1=C(c2ccc(OC(F)(F)F)cc2)C[C@@H]2CC[C@H]1N2C(=O)NCc1ccc(F)cc1`, the AC50 is 29.1 µM [falling, single point] under setting [1] and 32.6 µM [rising, partial curve, poor fit] under setting [2]. For `Cc1nn(C)cc1C(=O)NNC(=S)Nc1ccccc1`, under setting [1], the AC50 is 35.5 µM [falling, single point]. In the case of `CCOc1cc2c(cc1OCC)-n1cccc1C(c1cccc(F)c1F)NC2` (configuration not stated), the AC50 under setting [1] was 2.24 µM [rising, full curve, poor fit]. Regarding `C/C=C1\NC(=O)[C@@H](NC(=O)[C@H](CCc2ccc(O)cc2)NC(=O)[C@H](C)NC(=O)[C@H](O)CO)[C@@H](C)OC(=O)[C@H](C(C)C)NC(=O)[C@H](Cc2ccc(O)cc2)N(C)C(=O)[C@H](Cc2ccccc2)N2C(=O)C(CC[C@H]2O)NC1=O` (some centres not stated), the AC50 under setting [1] was 0.92 µM [rising, full curve, poor fit]. As for `CN1C(=O)NC(=O)/C(=C\C=C\c2ccccc2[N+](=O)[O-])C1=O`, the AC50 under setting [1] is 3.55 µM [falling, partial curve, poor fit]. On the same count and under the same terms, to `O=c1[nH]c(=S)n(-c2ccc(Cl)cc2)c(O)c1/C=N/N1CCOCC1` belongs 1.41 µM [falling, full curve, poor fit]; to `CCN1CCN(c2nc3ccccc3s2)CC1`, 5.01 µM [rising, full curve, poor fit]; to `Cc1cccc(CCNCc2cc3ccc(C)cc3[nH]c2=O)c1`, 35.5 µM [falling, single point].

Take `CCCCn1c(NC(=O)c2ccco2)c(C(=O)OCC)c2nc3ccccc3nc21`: the AC50 under setting [1] is 17.8 µM [falling, partial curve, poor fit]. Turning to `CCOc1cc(C=C2C(=O)NC(=O)NC2=O)ccc1OS(=O)(=O)c1ccccc1`, the AC50 was 6.51 µM [falling, partial curve, poor fit] under setting [1] and 32.6 µM [falling, partial curve, poor fit] under setting [2].

Regarding `COc1ccccc1OCC(=O)Nc1ccc(Cl)cc1C(=O)c1ccccc1`, under setting [1], the half-maximal activity concentration (AC50) is 0.164 µM [rising, full curve, poor fit]. Same read-out and setting: to `Cn1c(O)c(C=NCCCCCCCCCCC(=O)O)c(=O)n(C)c1=O` belongs 35.5 µM [falling, single point]; to `Cc1ccc(-c2nn(Cc3ccccc3)cc2C=O)cc1`, 5.17 µM [rising, partial curve, poor fit]; to `CN(C)CCn1c(=N)n(CC(O)c2ccc(Cl)c(Cl)c2)c2ccccc21` (configuration not stated), 11.2 µM [falling, partial curve, poor fit]. The same measure, in the same setting: the figure for `O=c1c2ccccc2nc(/C=C/c2ccccc2)n1-c1ccccc1F` is 17.8 µM [rising, single point]. Still for that read-out and setting: the figure for `CN1C(=O)C(=Cc2sc(=O)n(-c3ccccc3)c2N(C)C)C(=O)N(C)C1=O` is 8.91 µM [falling, partial curve].

Consider `O=C1NC(=O)C(CCc2ccncc2)(Cc2cccc(Cl)c2Cl)C(=O)N1c1ccc(Br)cc1` (configuration not stated), for which the AC50 under setting [1] is 23.1 µM [rising, partial curve, poor fit]. Turning to `CCC(=O)CC(c1ccccc1)c1c(O)c2ccccc2sc1=O` (configuration not stated), the AC50 under setting [1] was 18.4 µM [rising, partial curve].

Consider `CC1=CC(=O)C2=C(C)CC(O)C3C(C)C(=O)OC3C12` (configuration not stated), for which the AC50 under setting [1] was 0.282 µM [falling, full curve, poor fit]. Consider `CCCCC(=O)N/N=C/c1c(O)n(Cc2ccc(F)cc2)c(=O)[nH]c1=O`, for which the AC50 under setting [1] is 11.2 µM [rising, partial curve, poor fit]. Still for that read-out and setting: to `COc1cc(C(c2c(O)c3ccccc3oc2=O)c2c(C)n(C)n(-c3ccccc3)c2=O)ccc1O` (configuration not stated) belongs 7.31 µM [falling, partial curve]; to `CCN1CCN(c2ccc([N+](=O)[O-])cc2C(=O)OC)CC1`, 4.47 µM [rising, partial curve, poor fit].

Turning to `Cc1ccccc1N1C(=O)CC(=O)NC1=O`, the AC50 under setting [1] is 1.03 µM [falling, partial curve, poor fit].

On to `CN(C)CC1Oc2ccccc2OC1(O)c1ccccc1` (configuration not stated), for which the AC50 under setting [1] is 12.6 µM [falling, partial curve, poor fit]. In the case of `CN1CCC(n2nccc2N)CC1`, under setting [1], the AC50 is 1.03 µM [falling, full curve, poor fit].

For `Nc1ccc(Cl)cc1C(=O)c1ccccc1Cl`, under setting [2], the AC50 is 18.4 µM [falling, partial curve, poor fit]. As for `Cc1csc(NC(=O)C2CCCN(S(=O)(=O)c3ccc4c(c3)oc(=O)n4C)C2)n1` (configuration not stated), the concentration at half-maximal activity (AC50) under setting [1] was 29.1 µM [falling, single point].

`CCOC(=O)C(O)(c1ccc(N=Cc2ccccc2O)c(C)c1)C(F)(F)F` (configuration not stated): under setting [1], the AC50 was 0.731 µM [rising, full curve, poor fit]. Same read-out and setting: the figure for `Cc1ccc(Cn2nnnc2CN2CCC(n3nnc4cc(C(F)(F)F)ccc43)CC2)cc1` is 20.6 µM [falling, single point]; for `CN(Cc1cccc(-n2cccn2)c1)C(=O)CCc1nnc(C2CCCCC2)o1` it is 35.5 µM [rising, partial curve, poor fit]. `O=C1NC(=O)N(CCNc2ncc(C(F)(F)F)cc2Cl)C(=O)C1Cc1ccc(Cl)cc1` (configuration not stated): under setting [1], the AC50 is 35.5 µM [falling, single point].

The term AC50 denotes the concentration at which the activity in the assay is half-maximal.
